Data published in the supplement of paper PMC12067093, “Discovery and optimisation of a covalent ligand for TRIM25 and its application to targeted protein ubiquitination” (Chemical Science, 2025).
The list shows a part of the results.

The chains behind the UniProt entries cited, without tags or fusion partners. Where a name states a change or a piece, a line headed by the entry shows the natural chain unless it says otherwise.
UniProt P39748, whole entry, looked up: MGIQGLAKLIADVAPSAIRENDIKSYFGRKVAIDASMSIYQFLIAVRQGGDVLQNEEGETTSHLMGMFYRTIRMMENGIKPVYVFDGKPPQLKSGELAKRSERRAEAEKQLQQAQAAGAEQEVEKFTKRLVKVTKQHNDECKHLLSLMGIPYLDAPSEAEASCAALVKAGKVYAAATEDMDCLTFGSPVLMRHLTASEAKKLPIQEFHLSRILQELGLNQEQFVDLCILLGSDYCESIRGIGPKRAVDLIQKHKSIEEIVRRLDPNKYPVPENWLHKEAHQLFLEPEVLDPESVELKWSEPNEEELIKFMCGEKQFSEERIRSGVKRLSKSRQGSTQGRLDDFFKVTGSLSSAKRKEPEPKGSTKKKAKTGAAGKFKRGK
UniProt Q8NEZ5: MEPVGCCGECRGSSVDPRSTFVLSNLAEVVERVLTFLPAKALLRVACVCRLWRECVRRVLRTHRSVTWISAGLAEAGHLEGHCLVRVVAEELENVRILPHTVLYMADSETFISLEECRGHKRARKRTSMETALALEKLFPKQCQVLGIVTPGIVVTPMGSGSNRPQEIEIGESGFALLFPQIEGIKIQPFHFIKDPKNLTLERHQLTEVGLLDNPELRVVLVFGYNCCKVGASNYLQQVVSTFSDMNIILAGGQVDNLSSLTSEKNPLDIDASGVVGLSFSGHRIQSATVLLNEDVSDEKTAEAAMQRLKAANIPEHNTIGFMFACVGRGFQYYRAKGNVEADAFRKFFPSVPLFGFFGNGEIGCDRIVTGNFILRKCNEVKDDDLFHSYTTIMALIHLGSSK
UniProt Q9NVI1: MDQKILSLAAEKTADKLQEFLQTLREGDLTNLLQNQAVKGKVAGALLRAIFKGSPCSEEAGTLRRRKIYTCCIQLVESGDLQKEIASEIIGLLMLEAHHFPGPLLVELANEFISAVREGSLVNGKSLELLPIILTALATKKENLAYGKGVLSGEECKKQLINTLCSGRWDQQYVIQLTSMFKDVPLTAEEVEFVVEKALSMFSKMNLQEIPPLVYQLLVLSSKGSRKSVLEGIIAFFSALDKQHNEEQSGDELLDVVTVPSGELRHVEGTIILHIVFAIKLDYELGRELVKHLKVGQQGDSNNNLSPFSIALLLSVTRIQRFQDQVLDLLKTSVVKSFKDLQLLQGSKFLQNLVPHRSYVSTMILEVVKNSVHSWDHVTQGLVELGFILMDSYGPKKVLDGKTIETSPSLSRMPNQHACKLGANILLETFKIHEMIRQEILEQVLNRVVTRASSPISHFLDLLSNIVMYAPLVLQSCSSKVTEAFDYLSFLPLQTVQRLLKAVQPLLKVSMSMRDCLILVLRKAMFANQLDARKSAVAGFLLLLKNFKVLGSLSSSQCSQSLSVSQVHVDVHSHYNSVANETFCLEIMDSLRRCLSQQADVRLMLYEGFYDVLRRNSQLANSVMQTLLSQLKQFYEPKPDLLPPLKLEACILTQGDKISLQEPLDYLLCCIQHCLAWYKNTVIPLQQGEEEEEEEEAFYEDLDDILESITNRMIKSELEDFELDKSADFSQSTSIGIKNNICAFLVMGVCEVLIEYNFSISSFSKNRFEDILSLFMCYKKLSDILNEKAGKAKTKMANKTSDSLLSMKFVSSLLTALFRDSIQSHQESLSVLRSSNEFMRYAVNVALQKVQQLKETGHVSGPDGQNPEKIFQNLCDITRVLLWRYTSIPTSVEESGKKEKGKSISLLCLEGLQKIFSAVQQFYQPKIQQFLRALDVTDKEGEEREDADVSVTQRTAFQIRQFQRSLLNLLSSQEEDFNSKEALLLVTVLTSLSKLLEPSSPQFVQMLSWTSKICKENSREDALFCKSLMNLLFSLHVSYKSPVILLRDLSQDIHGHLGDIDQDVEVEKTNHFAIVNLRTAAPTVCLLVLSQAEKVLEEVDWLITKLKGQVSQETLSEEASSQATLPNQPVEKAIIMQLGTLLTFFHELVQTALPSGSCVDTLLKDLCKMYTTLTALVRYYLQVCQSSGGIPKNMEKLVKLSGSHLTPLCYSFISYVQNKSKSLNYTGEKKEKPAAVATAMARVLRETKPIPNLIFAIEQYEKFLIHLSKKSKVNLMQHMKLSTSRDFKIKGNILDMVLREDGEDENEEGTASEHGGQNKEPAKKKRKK
UniProt Q9UK73, whole entry, looked up: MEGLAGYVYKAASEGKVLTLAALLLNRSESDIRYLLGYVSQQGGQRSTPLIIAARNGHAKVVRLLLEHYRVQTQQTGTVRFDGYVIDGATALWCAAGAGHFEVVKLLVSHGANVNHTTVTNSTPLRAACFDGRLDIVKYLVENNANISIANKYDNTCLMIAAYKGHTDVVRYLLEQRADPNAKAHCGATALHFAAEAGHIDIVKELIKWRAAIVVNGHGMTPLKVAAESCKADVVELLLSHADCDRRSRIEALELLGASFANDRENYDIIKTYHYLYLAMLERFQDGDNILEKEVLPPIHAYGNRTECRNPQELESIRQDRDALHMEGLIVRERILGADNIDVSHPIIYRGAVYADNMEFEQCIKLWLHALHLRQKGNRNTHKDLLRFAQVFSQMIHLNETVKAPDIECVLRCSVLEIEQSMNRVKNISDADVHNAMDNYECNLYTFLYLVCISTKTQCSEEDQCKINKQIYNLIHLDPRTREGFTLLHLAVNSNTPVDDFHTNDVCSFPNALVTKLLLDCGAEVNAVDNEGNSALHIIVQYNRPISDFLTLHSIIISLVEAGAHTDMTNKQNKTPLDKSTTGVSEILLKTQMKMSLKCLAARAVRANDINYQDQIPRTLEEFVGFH
UniProt Q96IG2: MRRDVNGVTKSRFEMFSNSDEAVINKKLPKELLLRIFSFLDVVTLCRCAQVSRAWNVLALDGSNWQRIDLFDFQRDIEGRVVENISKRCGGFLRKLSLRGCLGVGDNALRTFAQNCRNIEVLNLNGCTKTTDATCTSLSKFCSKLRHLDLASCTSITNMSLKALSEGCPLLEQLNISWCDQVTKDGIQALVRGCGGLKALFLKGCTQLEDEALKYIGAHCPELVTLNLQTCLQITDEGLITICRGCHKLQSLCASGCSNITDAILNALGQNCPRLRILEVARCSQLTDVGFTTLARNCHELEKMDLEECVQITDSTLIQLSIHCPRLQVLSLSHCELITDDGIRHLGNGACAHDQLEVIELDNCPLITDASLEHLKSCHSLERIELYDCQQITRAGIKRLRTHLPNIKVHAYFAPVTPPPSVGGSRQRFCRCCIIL
UniProt Q52LJ0: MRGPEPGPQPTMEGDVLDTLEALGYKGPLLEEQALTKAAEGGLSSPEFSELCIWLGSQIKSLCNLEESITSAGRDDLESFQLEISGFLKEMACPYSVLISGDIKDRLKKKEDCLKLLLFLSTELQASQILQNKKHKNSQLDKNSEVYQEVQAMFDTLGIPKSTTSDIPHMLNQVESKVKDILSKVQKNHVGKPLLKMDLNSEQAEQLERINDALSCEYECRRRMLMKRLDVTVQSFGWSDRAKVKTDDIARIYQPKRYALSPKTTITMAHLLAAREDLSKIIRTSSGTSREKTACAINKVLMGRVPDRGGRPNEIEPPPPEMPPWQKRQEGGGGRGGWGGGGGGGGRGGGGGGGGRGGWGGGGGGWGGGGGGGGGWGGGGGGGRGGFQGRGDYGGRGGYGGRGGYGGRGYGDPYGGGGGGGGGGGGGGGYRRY
UniProt Q5JSP0: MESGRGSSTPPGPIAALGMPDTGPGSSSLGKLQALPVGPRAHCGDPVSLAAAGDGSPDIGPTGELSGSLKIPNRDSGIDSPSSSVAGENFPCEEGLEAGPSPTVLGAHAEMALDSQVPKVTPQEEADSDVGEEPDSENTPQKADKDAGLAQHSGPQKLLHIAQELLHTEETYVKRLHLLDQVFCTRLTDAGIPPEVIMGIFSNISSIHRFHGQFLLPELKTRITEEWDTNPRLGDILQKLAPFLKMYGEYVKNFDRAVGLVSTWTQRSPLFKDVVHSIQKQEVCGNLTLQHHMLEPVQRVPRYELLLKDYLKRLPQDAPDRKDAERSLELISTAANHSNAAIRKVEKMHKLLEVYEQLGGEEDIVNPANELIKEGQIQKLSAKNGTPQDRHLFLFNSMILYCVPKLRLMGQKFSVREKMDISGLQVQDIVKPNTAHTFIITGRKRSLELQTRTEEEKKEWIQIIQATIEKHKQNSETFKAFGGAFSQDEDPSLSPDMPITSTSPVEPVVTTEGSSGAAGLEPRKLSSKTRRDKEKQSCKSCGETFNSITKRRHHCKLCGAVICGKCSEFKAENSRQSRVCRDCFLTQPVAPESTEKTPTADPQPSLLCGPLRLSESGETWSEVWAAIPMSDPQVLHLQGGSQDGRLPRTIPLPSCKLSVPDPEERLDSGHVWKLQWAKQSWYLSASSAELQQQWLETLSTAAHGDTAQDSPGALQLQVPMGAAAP
UniProt Q9NSD9: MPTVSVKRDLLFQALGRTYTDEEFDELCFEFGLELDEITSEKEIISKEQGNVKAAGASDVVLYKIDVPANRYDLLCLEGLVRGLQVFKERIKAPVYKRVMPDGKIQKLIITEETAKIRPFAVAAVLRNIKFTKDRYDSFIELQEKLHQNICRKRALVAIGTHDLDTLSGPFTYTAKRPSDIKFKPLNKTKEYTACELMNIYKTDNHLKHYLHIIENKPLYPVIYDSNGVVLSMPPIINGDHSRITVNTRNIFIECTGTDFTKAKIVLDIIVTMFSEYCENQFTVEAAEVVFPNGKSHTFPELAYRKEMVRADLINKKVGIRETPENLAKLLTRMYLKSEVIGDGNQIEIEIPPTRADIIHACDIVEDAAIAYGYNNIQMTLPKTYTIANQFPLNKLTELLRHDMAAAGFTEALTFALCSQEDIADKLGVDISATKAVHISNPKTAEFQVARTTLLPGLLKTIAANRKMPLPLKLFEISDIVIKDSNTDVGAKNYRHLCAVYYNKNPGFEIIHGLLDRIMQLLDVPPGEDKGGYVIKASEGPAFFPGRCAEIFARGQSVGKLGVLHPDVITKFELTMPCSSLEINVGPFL
UniProt Q9UK61: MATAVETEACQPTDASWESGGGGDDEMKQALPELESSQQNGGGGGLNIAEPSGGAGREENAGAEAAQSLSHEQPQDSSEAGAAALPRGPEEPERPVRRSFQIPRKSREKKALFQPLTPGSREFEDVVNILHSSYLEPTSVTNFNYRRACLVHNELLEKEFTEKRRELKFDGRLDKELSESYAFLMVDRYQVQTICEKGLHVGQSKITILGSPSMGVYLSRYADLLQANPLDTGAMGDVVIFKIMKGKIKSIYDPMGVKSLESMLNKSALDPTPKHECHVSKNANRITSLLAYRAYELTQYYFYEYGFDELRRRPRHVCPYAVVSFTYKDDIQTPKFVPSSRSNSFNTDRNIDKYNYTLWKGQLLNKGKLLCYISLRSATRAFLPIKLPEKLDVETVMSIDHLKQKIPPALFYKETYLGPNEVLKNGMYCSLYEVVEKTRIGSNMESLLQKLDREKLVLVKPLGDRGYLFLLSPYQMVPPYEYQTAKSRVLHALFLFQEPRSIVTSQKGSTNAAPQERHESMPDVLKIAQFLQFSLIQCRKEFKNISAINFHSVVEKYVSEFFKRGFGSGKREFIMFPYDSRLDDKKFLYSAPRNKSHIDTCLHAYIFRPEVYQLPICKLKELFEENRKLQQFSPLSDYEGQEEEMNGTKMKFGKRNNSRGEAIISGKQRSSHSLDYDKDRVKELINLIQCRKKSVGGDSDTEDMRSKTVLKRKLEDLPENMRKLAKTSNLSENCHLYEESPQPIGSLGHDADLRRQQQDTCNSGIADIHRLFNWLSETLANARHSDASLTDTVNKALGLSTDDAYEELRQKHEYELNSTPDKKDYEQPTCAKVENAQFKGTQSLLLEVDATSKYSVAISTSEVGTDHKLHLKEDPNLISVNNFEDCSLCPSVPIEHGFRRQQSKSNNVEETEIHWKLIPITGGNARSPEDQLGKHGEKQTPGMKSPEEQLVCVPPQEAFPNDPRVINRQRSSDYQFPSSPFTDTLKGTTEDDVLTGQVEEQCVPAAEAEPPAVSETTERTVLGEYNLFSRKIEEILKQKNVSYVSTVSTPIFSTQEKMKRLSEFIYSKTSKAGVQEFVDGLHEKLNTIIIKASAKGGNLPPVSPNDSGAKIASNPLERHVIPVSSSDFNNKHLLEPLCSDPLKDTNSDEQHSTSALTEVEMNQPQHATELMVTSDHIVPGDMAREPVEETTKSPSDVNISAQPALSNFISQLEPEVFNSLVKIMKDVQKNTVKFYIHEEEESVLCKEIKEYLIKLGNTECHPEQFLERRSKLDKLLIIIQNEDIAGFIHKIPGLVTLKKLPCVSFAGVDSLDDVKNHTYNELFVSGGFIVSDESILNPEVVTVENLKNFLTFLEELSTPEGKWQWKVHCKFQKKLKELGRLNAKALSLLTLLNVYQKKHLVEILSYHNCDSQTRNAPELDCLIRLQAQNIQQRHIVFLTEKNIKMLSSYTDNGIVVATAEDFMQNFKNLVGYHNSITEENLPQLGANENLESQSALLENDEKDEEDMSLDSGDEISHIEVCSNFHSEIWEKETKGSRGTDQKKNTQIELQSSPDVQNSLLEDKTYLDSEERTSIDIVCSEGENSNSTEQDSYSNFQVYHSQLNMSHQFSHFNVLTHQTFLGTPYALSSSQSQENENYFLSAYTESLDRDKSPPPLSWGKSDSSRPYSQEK

compound: Cc1cc(ccc1-c1ccccc1)C(=O)N1CCCN(CC1)C(=O)CCl [compound 10]; test: probe-labelled cysteine peptide fold change vs DMSO (competition) (log2 fold change); higher = less target engagement (more negative = stronger competition); settings: 10 µM; THP-1; incubation time: 4 h
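Further: competitive profiling in live THP-1 cells: cysteine peptides tagged with an iodoacetamide desthiobiotin (IA-DTB) probe, intensity after compound treatment relative to DMSO-treated cells.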

Target | probe-labelled cysteine peptide fold change
FEN1_P39748_141_QHNDECK (UniProt P39748) | -0.000785
FASN_P49327_1471_CVLLSNLSSTSHVPEVDPGSAELQK (UniProt P49327) | 0.126
FBXO22_Q8NEZ5_365_KFFPSVPLFGFFGNGEIGCDR (UniProt Q8NEZ5) | 0.106
FANCI_Q9NVI1_650_LEACILTQGDK (UniProt Q9NVI1) | -0.0611
FEM1B_Q9UK73_409_APDIECVLR (UniProt Q9UK73) | -0.32
FBXL20_Q96IG2_135_TTDATCTSLSK (UniProt Q96IG2) | -0.123
FASN_P49327_779_RGLKPSCTIIPLMK (UniProt P49327) | -0.131
FAM98B_Q52LJ0_216+220_INDALSCEYECR (UniProt Q52LJ0) | -0.164
FGD3_Q5JSP0_284_QEVCGNLTLQHHMLEPVQR (UniProt Q5JSP0) | 0.00639
FAM208B_Q5VWN6_873_AHAAEVSFRDPNCLLPFIK (UniProt Q5VWN6) | -0.123
FBXL20_Q96IG2_272_LQSLCASGCSNITDAILNALGQNCPR (UniProt Q96IG2) | -0.0328
FEM1B_Q9UK73_244_ADVVELLLSHADCDR (UniProt Q9UK73) | -0.305
FARSB_Q9NSD9_76_YDLLCLEGLVR (UniProt Q9NSD9) | 0.165
FASN_P49327_2369_AKLTPGCEAEAETEAICFFVQQFTDMEHNR (UniProt P49327) | -0.0307
FGD4_Q96M96_234_LDLLDQVFYCK (UniProt Q96M96) | 0.118
FAM208A_Q9UK61_761_QQQDTCNSGIADIHR (UniProt Q9UK61) | -0.0363
